# Source: article PMC3629208
# Sequences of proteins named here, by UniProt entry; tags and fusion partners are left off.
# UniProt P31750: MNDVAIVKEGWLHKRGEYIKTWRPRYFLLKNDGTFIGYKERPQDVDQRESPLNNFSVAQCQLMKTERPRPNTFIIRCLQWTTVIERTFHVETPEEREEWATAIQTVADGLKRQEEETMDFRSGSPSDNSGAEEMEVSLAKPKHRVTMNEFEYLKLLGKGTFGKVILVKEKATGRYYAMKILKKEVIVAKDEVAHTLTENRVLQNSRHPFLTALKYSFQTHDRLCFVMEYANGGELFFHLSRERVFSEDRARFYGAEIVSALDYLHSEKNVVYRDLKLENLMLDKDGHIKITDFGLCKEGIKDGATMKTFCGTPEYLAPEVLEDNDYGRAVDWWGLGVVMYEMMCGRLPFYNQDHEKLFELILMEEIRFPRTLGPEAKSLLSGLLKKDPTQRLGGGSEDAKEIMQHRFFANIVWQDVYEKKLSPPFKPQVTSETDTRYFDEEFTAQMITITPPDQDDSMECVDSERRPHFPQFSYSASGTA
# Tests used:
# [1] = target: Akt (protein kinase B), Akt1 (mouse (endogenous in Neuro 2A)) (UniProt P31750); assay: affinity purification with mass spectrometry; anti-Akt antibody fixed on the beads via DSS but without DSP-crosslinking, Neuro 2A lysate, nanoLC-MS/MS
# [2] = target: Akt (protein kinase B), Akt1 (mouse (endogenous in Neuro 2A)) (UniProt P31750); assay: condition: only with neither DSS- nor DSP-crosslinking; affinity purification with mass spectrometry; conventional co-IP with neither DSS- nor DSP-crosslinking: protein A/G agarose with anti-Akt antibody, pre-cleared Neuro 2A lysate overnight, five washes, elution in Laemmli buffer, nanoLC-MS/MS
# [3] = target: Akt (protein kinase B), Akt1 (mouse (endogenous in Neuro 2A)) (UniProt P31750); assay: affinity purification with mass spectrometry; two-step crosslinking co-IP: anti-Akt antibody fixed on protein A/G agarose with DSS, incubated overnight at 4°C with pre-cleared Neuro 2A lysate (1.5 mg protein; PBS, 1% NP-40), then 1.6 mM DSP for 2 h, five washes (25 mM Tris, 150 mM NaCl, 1 mM EDTA, 1% NP-40, 5% glycerol, pH 7.4), elution in Laemmli buffer, SDS-PAGE, nanoLC-MS/MS; cells with or without IGF-1 (10 ng/mL, 10 min); negative control serum IgG or secondary antibody
binder,measurement,setting,value
"ErbB3 binding protein 1 (EBP1, also called proliferation-associated protein 2G4) (protein, UniProt P50580 1-394) MSGEDEQQEQTIAEDLVVTKYKMGGDIANRVLRSLVEASSSGVSVLSLCEKGDAMIMEETGKIFKKEKEMKKGIAFPTSISVNNCVCHFSPLKSDQDYILKEGDLVKIDLGVHVDGFIANVAHTFVIGVAQGTQVTGRKADVIKAAHLCAEAALRLVKPGNQNTQVTEAWNKVAHSFNCTPIEGMLSHQLKQHVIDGEKTIIQNPTDQQKKDHEKAEFEVHEVYAVDVLVSSGEGKAKDAGQRTTIYKRDPSKQYGLKMKTSRAFFSEVERRFDAMPFTLRAFEDEKKARMGVVECAKHELLQPFNVLYEKEGEFVAQFKFTVLLMPNGPMRITSGPFEPDLYKSEMEVQDAELKALLQSSASRKTQKKKKKKASKTVENATSGETLEENGAGD",binding,[1],no binding (only without DSP-crosslinking)
same,binding,[2],no binding
same,binding,[3],binds

# These are yes or no findings as the source states them, for the method shown. Binding seen in cells or lysates may run through a third protein. Here binding means that the protein was enriched with, or labelled near, the bait; the list need not be complete. For part of these data: A no says only that the protein was not detected with the bait.
